Experimental data reported in paper PMC6891695, “Evaluation of Antifouling Potential and Ecotoxicity of Secondary Metabolites Derived from Red Algae of the Genus Laurencia” (Marine Drugs, 2019).

The compounds below were run on cyprids of A. amphitrite. Conditions: 72 h.
Format: in vivo
Procedure: Adult A. amphitrite (Cirripedia, Balanidae) were collected from boat docks at Port Mikrolimano and Floisvos, Athens, Greece. Animals were cleaned of epibionts with a small hard brush and meticulously identified as individuals of the species. Adult barnacles were kept in separate aerated glass tanks (20 L) containing 200-μm filtered natural seawater at 27 °C and a 12:12 L:D photoperiod. Tanks were fed with 24-h hatched Artemia sp. (Branchiopoda) nauplii and Tetraselmis suecica (Chlorodendrophyceae) and Skeletonema costatum (Bacillariophyceae) algae each day and seawater was changed on alternate days. Upon stress to induce oviposition (exposure to air for 24 h or immersion in fresh water for 5 h), adults were returned to seawater for larval release. Hatched nauplii were attracted to a point light source, collected and placed into a beaker containing 2 or 3 L of 0.7 μm GF/F (GE Healthcare, Little Chalfont, UK )-filtered natural seawater at a density of approximately 1–2 nauplii/mL with gentle aeration. Nauplii were maintained at 27 °C at a 12:12 L:D photoperiod on a diet of C. gracilis (Bacillariophyceae) provided at a density of 2 × 10^5 cells/mL. Cultured in these conditions, nauplii metamorphosed to cyprids in 5 days. Aliquots of these cyprids were collected with a wide-mouthed Pasteur pipette and aged at 4 °C for 1 day prior to use in settlement assays. Only batches of cyprids that were active and had numerous oil cells, representing energy reserves, were used in settlement assays.
Assays were conducted by adding 10 cyprids into individual wells of a 24-well polystyrene sterile microplate (Orange Scientific, Braine l’Alleud, Belgium) with 2 mL of artificial sea water (ASW) (25‰) and various concentrations of the chemical compounds as listed in Table 1. These experiments were repeated at least three times with four replicates for each concentration of any given compound (n = 120 cyprids/compound). Stock solutions for all compounds were prepared in methanol (Scharlab, Barcelona, Spain) and serial dilutions were prepared in 0.7 μm (GF/F, GE Healthcare, Little Chalfont, UK), filtered sea water to have a final concentration of 2.5% methanol in each assay solution. Plates were covered and sealed with Parafilm® to avoid evaporation and incubated at 25 °C away from any light source and examined after 24, 48 and 72 h. Each animal was inspected under a stereomicroscope and its condition was recorded. […] Both permanently attached and metamorphosed individuals were counted as settled or juveniles. The remainder were counted as ‘no metamorphosis’, i.e. animals that responded to light touch and were still cyprids at the end of the experiments with no overt signs of metamorphosis.
For EC50 or IC50 (the concentration that results in 50% stimulation or inhibition relative to the control) calculations in GraphPad Prism v.6, all data were fitted to the curve according to the following models for normalized response: Y = 100/(1 + 10^((X − LogIC50))) or Y = 100/(1 + 10^((LogEC50 − X))) depending on the trend of the curve.

Structure (SMILES) | Settlement/No Metamorphosis Ratio IC50/EC50 | Therapeutic Ratio (TR = LC50/IC50)
CC(C)[C@@H]1CC=C[C@H]2[C@H]3[C@](C)(CC[C@]12CBr)[C@@H](Br)CC[C@@]3(C)O [Bromosphaerol, reference compound] | 1.49 | 2.99
C=C1CC[C@@](C)(c2ccc(C)cc2)[C@H]1C [Compound 1, laurene] |  | 1.82
C=C1CC[C@@](C)(c2ccc(C)cc2OC(C)=O)[C@H]1C [Compound 2, debromoallolaurinterol acetate] | 0.54 | 9.67
C=C1CC[C@@](C)(c2cc(Br)c(C)cc2OC(C)=O)[C@H]1C [Compound 3, allolaurinterol acetate] | 0.02 | 134.60
Cc1ccc(C2(C)CCC(=CBr)C2C)c(O)c1 (centres unmarked) [Compound 4, iso-laurenisol] | 0.06 | 8.24
Cc1cc2c(cc1Br)C1(C)CCC(C)(O2)C1C (centres unmarked) [Compound 5, filiformin] | 44.84 | 
Cc1cc(O)c(C2(C)CCC3CC32C)cc1Br (centres unmarked) [Compound 6, laurinterol] | 0.08 | 1.82
CC(C)[C@H]1CC(C)(C)[C@@H](O)C2=C1CC[C@H]2C [Compound 7, epibrasilenol] | 0.19 | 2.43
CC(C)C1=C2CCC(C)C2CC(C)(C)C1O (centres unmarked) [Compound 8, 4-hydroxy-5-brasilene] | 1.28 | 0.85
CC1=C2CC[C@@](C)(Cl)[C@@H](Br)C[C@]2(C)[C@@H](C)[C@@H](Br)[C@@H]1O [Compound 9, perforenol] | 0.01 | 98.28
CC1=CC[C@@]2(C)C(=C(C)C(=O)[C@@H](O)[C@@H]2C)CC1 [Compound 10, perforenone A] | 0.08 | 6.17
C=C1C[C@H](O)[C@H](Br)C(C)(C)[C@@]12CCC(C)=C(Cl)C2 [Compound 12, elatol] | 0.64 | 1.45
C=CC(C)(O)CC[C@H](Br)[C@@]1(C)CC[C@H](Br)C(C)(C)O1 (some centres unmarked) [Compound 13, obtusenol] | 0.01 | 7.99
CC1(C(Br)CO)CC=C2C(C1)C(O)CC1C2(C)CCC(Br)C1(C)C (centres unmarked) [Compound 14, 3,15-dibromo-7,16-dihydroxy-isopimar-9(11)-ene] | 0.00 | 126.43
CC(=O)OCC(Br)C1(C)CC=C2C(C1)C(O)CC1C2(C)CC(OC(C)=O)C2CC21C (centres unmarked) [Compound 15, deoxyparguerol 16-acetate] | 0.07 | 6.45
C=CC(C)(O)CCC1C(=C)CCC(Br)C1(C)CCC(O)C(C)(C)Cl (centres unmarked) [Compound 16] | 0.04 | 
C=CC(C)(O)CCC1C(=C)CCC(Br)C1(C)CCC(Br)C(C)(C)O (centres unmarked) [Compound 17] | 0.01 | 
C=CC(C)(O)CC[C@@H]1C(=C)CC[C@@H](Br)[C@@]1(C)CCC1OC1(C)C (some centres unmarked) [Compound 18] | 0.01 | 64.37
C=C(C1CCC(C)(O)C(Br)C1)C1C(Br)C2C(CCC2(C)O)C1(C)C (centres unmarked) [Compound 19, neorogioldiol] | 0.01 | 758.07
CC(=CC=CC1(C)CCC(Br)C(C)(C)O1)C1CCC(C)(O)C(Br)C1 (centres unmarked) [Compound 20, O^11,15-cyclo-14-bromo-14,15-dihydrorogiol-3,11-diol] | 0.33 | 41.66
C#CC=CCC1OC(C=CC)CC=CCC1Cl (centres unmarked) [Compound 21, (3Ε)-laurenyne] | 575.00 | 32.40
C#CC=CCC1OC(C(Br)CC)CC(OC(C)=O)C(Cl)CC1Cl (centres unmarked) [Compound 22, laurencienyne] | 0.00 | 1297.0
CCC=CCC(Br)C(CC1OC(C=C=CBr)CC1OC(C)=O)OC(C)=O (centres unmarked) [Compound 23, graciosallene] | 0.86 | 
